± gives the standard deviation of the averaged measurements. This is one part of the list. Single values are uncertain here, since repeats match poorly.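 Fusion between ACE2-bearing and full-length-spike-bearing U2OS cells was measured by imaging as the percentage of nuclei with both cell types' fluorescent markers. An inhibitory hit is a non-toxic compound whose fusion z-score is below -3, more than three standard deviations beneath the plate's DMSO wells.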

This assay concerns U2OS ACE2 x SARS-CoV-2 spike co-culture. Put plainly: cell-cell fusion (fraction fused) z-score vs plate DMSO control; higher = more fusion. Particulars: 30 µM; 5 h; toxicity class: non-toxic, passed QC.
With `Cc1ccc(O)c([C@H](CCN(C(C)C)C(C)C)c2ccccc2)c1.O=C(O)[C@H](O)[C@@H](O)C(=O)O` [Tolterodine], the “cell-cell fusion (z-score)” value is inactive: 1.63.

For the compound `CCCc1cc(=O)[nH]c(=S)[nH]1`, the “cell-cell fusion (z-score)” value was inactive: 1.59.

As to `CC(C)(NS(=O)(=O)c1ccc(Oc2ccc(F)cc2)cc1)C(=O)NO`, the “cell-cell fusion (z-score)” value is -4.56 ± 3.1.

For `CC(C)[C@@H]1CC[C@@H](C)C[C@H]1OC(=O)c1ccccc1`, the “cell-cell fusion (z-score)” value is inactive: 2.07.

With `Br.CC(N)Cc1ccc(O)cc1` (configuration not stated), the “cell-cell fusion (z-score)” value was inactive: 1.11.

As for `CC[C@@H](C)[C@H]1O[C@]2(CC[C@@H]1C)C[C@@H]1C[C@@H](C/C=C(\C)[C@@H](O[C@H]3C[C@H](OC)[C@@H](O[C@H]4C[C@H](OC)[C@@H](O)[C@H](C)O4)[C@H](C)O3)[C@@H](C)/C=C/C=C3\CO[C@@H]4[C@H](O)C(C)=C[C@@H](C(=O)O1)[C@]34O)O2` [Ivermectin], the “cell-cell fusion (z-score)” value is inactive: 2.63.

Turning to `CCN(CC)CCCN(c1ccccc1)C1Cc2ccccc2C1.Cl` [Aprindine hydrochloride], the “cell-cell fusion (z-score)” value is inactive: -2.65.

Consider `C[C@]12C=CC(=O)N[C@@H]1CC[C@@H]1[C@@H]2CC[C@]2(C)[C@@H](C(=O)Nc3cc(C(F)(F)F)ccc3C(F)(F)F)CC[C@@H]12` [Dutasteride], for which the “cell-cell fusion (z-score)” value was inactive: 2.26.

As for `COc1ccccc1OCCNCC(O)COc1cccc2[nH]c3ccccc3c12.COc1ccccc1OCCNCC(O)COc1cccc2[nH]c3ccccc3c12.O.O=P(O)(O)O.O=P(O)(O)O` (configuration not stated) [Carvedilol phosphate], the “cell-cell fusion (z-score)” value is inactive: -1.55.

For the compound `Cc1ccc(Nc2nccc(N(C)c3ccc4c(C)n(C)nc4c3)n2)cc1S(N)(=O)=O.Cl`, the “cell-cell fusion (z-score)” value was active: -6.09.

`C[Se]CCC(N)C(=O)O` (configuration not stated) [Selenomethionine]: the “cell-cell fusion (z-score)” value is inactive: 0.809.

Turning to `C[C@H](N)Cc1cccc(C(F)(F)F)c1.Cl` [(+)-Norfenfluramine hydrochloride], the “cell-cell fusion (z-score)” value is inactive: 2.73.

For `Cc1ccc2c(Br)cc(Br)c(OC(=O)c3ccccc3)c2n1`, the “cell-cell fusion (z-score)” value is inactive: 1.53.

As for `CC1(C)NC(=O)N(c2ccc([N+](=O)[O-])c(C(F)(F)F)c2)C1=O`, the “cell-cell fusion (z-score)” value is inactive: 3.41.

With `CC1(C)NC(=O)N(c2ccc([N+](=O)[O-])c(C(F)(F)F)c2)C1=O` [Nilutamide], the “cell-cell fusion (z-score)” value is inactive: 1.07.

On to `O=C(OOC(=O)c1ccccc1)c1ccccc1`, for which the “cell-cell fusion (z-score)” value is inactive: 1.73.

Turning to `CC1CCN=C(N)S1.Cl` (racemic) [(±)-AMT hydrochloride], the “cell-cell fusion (z-score)” value was inactive: 2.37.

For `CC(=O)N1CCN(c2ccc(OC[C@H]3CO[C@](Cn4ccnc4)(c4ccc(Cl)cc4Cl)O3)cc2)CC1` [Ketoconazole], the “cell-cell fusion (z-score)” value was inactive: 2.17.

For the compound `CCn1cc(C(=O)O)c(=O)c2cc(F)c(N3CCNC(C)C3)c(F)c21` (configuration not stated) [Lomefloxacin], the “cell-cell fusion (z-score)” value is inactive: 2.87.

Consider `COc1ccc2cc(-c3[nH]c(-c4ccc(S(C)=O)cc4)nc3-c3ccncc3)ccc2c1` (configuration not stated) [Tie2 kinase inhibitor], for which the “cell-cell fusion (z-score)” value is inactive: 1.67.

Turning to `C[C@@H]1C[C@@H]([C@H](O)CC2CC(=O)NC(=O)C2)C(=O)[C@@H](C)C1`, the “cell-cell fusion (z-score)” value was inactive: 1.74.

On to `C[C@H]1[C@H]2CCC3C4CC=C5C[C@@H](N(C)C)CC[C@]5(C)C4CC[C@@]32CN1C` (some centres not stated), for which the “cell-cell fusion (z-score)” value was inactive: 1.47.

As for `COc1cc2ccc(=O)oc2c2ccoc12`, the “cell-cell fusion (z-score)” value was inactive: 1.8.

Consider `CN(C/C=C/c1ccccc1)Cc1cccc2ccccc12.Cl` [Naftifine hydrochloride], for which the “cell-cell fusion (z-score)” value was inactive: 4.29.

Consider `CC[C@@H]1C(=O)OC[C@@H]1Cc1cncn1C.Cl` [(+)-Pilocarpine hydrochloride], for which the “cell-cell fusion (z-score)” value was inactive: 2.24.

`COc1cc2c(cc1OC)-c1c/c(=N\c3c(C)cc(C)cc3C)n(C)c(=O)n1CC2.Cl` [Trequinsin hydrochloride]: the “cell-cell fusion (z-score)” value was active: -5.31.

`CC(C)C[C@H](NC(=O)[C@H](O)[C@H](N)Cc1ccccc1)C(=O)O.Cl` [Epibestatin hydrochloride]: the “cell-cell fusion (z-score)” value was inactive: 1.61.

As for `CCCCCCCCCCC[C@@H](C[C@H]1OC(=O)[C@H]1CCCCCC)OC(=O)[C@@H](CC(C)C)NC=O`, the “cell-cell fusion (z-score)” value is inactive: 2.55.

As to `Oc1ccc2ccccc2c1SSc1c(O)ccc2ccccc12`, the “cell-cell fusion (z-score)” value was inactive: 1.25.

Take `CC(C)[C@H](C(=O)Nc1ccc(C(=O)NO)cc1)c1ccccc1`: the “cell-cell fusion (z-score)” value is inactive: 1.3.

For `CO[C@H]1/C=C/O[C@@]2(C)Oc3c(C)c(O)c4c([O-])c(cc(O)c4c3C2=O)NC(=O)/C(C)=C\C=C\[C@H](C)[C@H](O)[C@@H](C)[C@@H](O)[C@@H](C)[C@H](OC(C)=O)[C@@H]1C.[Na+]` [Rifamycin sodium salt], the “cell-cell fusion (z-score)” value is inactive: 0.81.

Regarding `CC[C@H](C)C(=O)O[C@H]1C[C@H](O)C=C2C=C[C@H](C)[C@H](CC[C@@H](O)C[C@@H](O)CC(=O)[O-])[C@H]21.[Na+]` [Pravastatin sodium], the “cell-cell fusion (z-score)” value was inactive: 4.02.

Turning to `Oc1nc(-c2ccc(C(F)(F)F)cc2)nc2c1CSCC2`, the “cell-cell fusion (z-score)” value was inactive: 0.727.

As to `NC(=O)CNCCC(c1ccccc1)c1ccccc1` [N-(3,3-Diphenylpropyl)glycinamide], the “cell-cell fusion (z-score)” value is inactive: 2.71.

On to `COc1ccc(C(=O)c2ccc(C)cc2)c(O)c1`, for which the “cell-cell fusion (z-score)” value is inactive: 0.393.

Turning to `C#CCN(C)C(C)Cc1ccccc1.Cl` (configuration not stated), the “cell-cell fusion (z-score)” value is inactive: -2.34.

On to `COc1ccc(-c2coc3c(O)c(O)c(OC)cc3c2=O)cc1`, for which the “cell-cell fusion (z-score)” value is inactive: 2.14.

Turning to `CC(N/C(=N/C#N)Nc1ccncc1)C(C)(C)C` (configuration not stated), the “cell-cell fusion (z-score)” value is inactive: 2.58.

Take `NC(=O)c1ccc(N(C(N)=O)c2c(F)cccc2F)nc1-c1ccc(F)cc1F`: the “cell-cell fusion (z-score)” value was inactive: 1.44.

Turning to `C=CCN=C=S`, the “cell-cell fusion (z-score)” value was inactive: 1.5.

With `N=C(N)NOCC[C@H](N)C(=O)O.O=S(=O)(O)O` [L-Canavanine sulfate], the “cell-cell fusion (z-score)” value is inactive: -2.71.

`NNC(=O)c1ccncc1.Nc1ccc(C(=O)O)c(O)c1`: the “cell-cell fusion (z-score)” value is inactive: 3.12.

As to `Cc1cccc(CN2CCN(C(c3ccccc3)c3ccc(Cl)cc3)CC2)c1.Cl.Cl` (configuration not stated) [Meclizine dihydrochloride], the “cell-cell fusion (z-score)” value was inactive: 0.237.

On to `CC1=CCc2c(cc3oc(C)cc(=O)c3c2O)OC1`, for which the “cell-cell fusion (z-score)” value is inactive: 1.52.

For `Cc1nc2n(c(=O)c1CCN1CCC(c3noc4cc(F)ccc34)CC1)CCC[C@H]2O`, the “cell-cell fusion (z-score)” value was inactive: 1.32.

As for `Cc1cccc(Nc2ccccc2C(=O)O)c1C`, the “cell-cell fusion (z-score)” value is inactive: 1.99.

As to `Fc1ccc2[nH]c(CN3CCN(c4ccccn4)CC3)cc2c1`, the “cell-cell fusion (z-score)” value is inactive: 2.96.

As to `CNCC(O)c1ccc(OC(=O)C(C)(C)C)c(OC(=O)C(C)(C)C)c1.Cl` (configuration not stated) [Dipivefrin hydrochloride], the “cell-cell fusion (z-score)” value was active: -3.29.

As for `OC[C@H]1O[C@@H](n2cnc3c(NC4CCCCC4)ncnc32)[C@H](O)[C@@H]1O` [N6-Cyclohexyladenosine], the “cell-cell fusion (z-score)” value is inactive: -0.408.

In the case of `CCOC(=O)COc1ccc2c(=O)cc(-c3ccccc3)oc2c1`, the “cell-cell fusion (z-score)” value is inactive: 1.24.

Regarding `O=C(O)c1ccccc1`, the “cell-cell fusion (z-score)” value was inactive: -0.542.

With `CC(=O)Nc1ncc([N+](=O)[O-])s1`, the “cell-cell fusion (z-score)” value was inactive: 1.15.

On to `OC[C@@H]1CCCN2CCCC[C@H]12`, for which the “cell-cell fusion (z-score)” value is inactive: 2.99.

Regarding `Nc1ncnc2nc[nH]c12` [Adenine], the “cell-cell fusion (z-score)” value was inactive: 3.09.

In the case of `NS(=O)Oc1cc(C(=O)O)c(NCc2ccco2)cc1Cl` (configuration not stated) [Furosemide], the “cell-cell fusion (z-score)” value was inactive: 2.53.

Turning to `CC(Cc1ccc(O)c(O)c1)C(C)Cc1ccc(O)c(O)c1` (configuration not stated) [Nordihydroguaiaretic acid], the “cell-cell fusion (z-score)” value was active: -3.01.

Take `C=CCc1ccccc1OCC(O)CNC(C)C.Cl` (configuration not stated) [Alprenolol hydrochloride]: the “cell-cell fusion (z-score)” value is inactive: 1.2.

On to `C=CCc1ccccc1OCC(O)CNC(C)C.Cl` (configuration not stated), for which the “cell-cell fusion (z-score)” value was inactive: 1.8.

As to `CN(C)CCOC(c1ccc(Cl)cc1)c1ccccn1.O=C(O)/C=C\C(=O)O` (configuration not stated), the “cell-cell fusion (z-score)” value was inactive: 0.205.

On to `C=C1C/C=C(\C)CC[C@@H]2[C@@H]1CC2(C)C`, for which the “cell-cell fusion (z-score)” value is inactive: 2.92.

With `Cc1[nH]cnc1CN1CCc2c(c3ccccc3n2C)C1=O.Cl` [Alosetron hydrochloride], the “cell-cell fusion (z-score)” value was inactive: 1.92.

With `C#Cc1cccc(Nc2ncnc3cc(OC)c(OCCCCCCC(=O)NO)cc23)c1`, the “cell-cell fusion (z-score)” value was inactive: 1.88.

In the case of `CC1(C)O[C@@H]2C[C@H]3[C@@H]4CCC5=CC(=O)C=C[C@]5(C)[C@H]4[C@@H](O)C[C@]3(C)[C@]2(C(=O)CO)O1` [Desonide], the “cell-cell fusion (z-score)” value was inactive: 2.96.

Regarding `NCc1cccnc1`, the “cell-cell fusion (z-score)” value is inactive: 2.78.

On to `Oc1cc(O)cc(/C=C/c2ccc(O)c(O)c2)c1` [Piceatannol], for which the “cell-cell fusion (z-score)” value is inactive: 0.312.

In the case of `COc1cc(Nc2nc3ccccc3nc2NS(=O)(=O)c2ccc(NC(=O)c3ccc(C)c(OC)c3)cc2)cc(OC)c1`, the “cell-cell fusion (z-score)” value is inactive: 2.03.

As to `C[C@H]1[C@H](C)CC[C@]2(C(=O)O)CC[C@]3(C)C(=CCC4[C@@]5(C)C[C@@H](O)[C@H](O)[C@@](C)(CO)C5CC[C@]43C)[C@H]12` (some centres not stated), the “cell-cell fusion (z-score)” value is inactive: 1.93.

Regarding `O=C(O)CCc1ccc(NCc2cccc(Oc3ccccc3)c2)cc1`, the “cell-cell fusion (z-score)” value was inactive: 0.884.

Consider `CC1(C)O[C@@H]2CC3C4C[C@H](F)C5=CC(=O)C=CC5(C)C4C(O)CC3(C)[C@]2(C(=O)CO)O1` (some centres not stated), for which the “cell-cell fusion (z-score)” value is inactive: 1.47.

On to `CC(CNCCc1ccc(O)c(O)c1)Cc1cccc(O)c1.Cl` (configuration not stated), for which the “cell-cell fusion (z-score)” value was inactive: 1.11.

Regarding `Cc1onc(-c2ccccc2)c1-c1ccc(S(N)(=O)=O)cc1` [Valdecoxib], the “cell-cell fusion (z-score)” value is inactive: 1.04.

Consider `C=CC[C@]1(O)CC[C@H]2[C@@H]3CCC4=CC(=O)CCC4=C3C=C[C@@]21C`, for which the “cell-cell fusion (z-score)” value is inactive: 3.81.

Values taken from the supplement of paper PMC8104966.
